Source: article PMC7445249
Results are given in words; binding and its absence hold for the method and conditions named. Binding seen in cells or lysates may run through a third protein. Some binding calls cover weakened binding; strength is not graded here. For some of these results: Tags and fused reporters may be left off the sequences shown.

Chains of the proteins cited; added tags and fusions are not shown.
UniProt Q9NQ35: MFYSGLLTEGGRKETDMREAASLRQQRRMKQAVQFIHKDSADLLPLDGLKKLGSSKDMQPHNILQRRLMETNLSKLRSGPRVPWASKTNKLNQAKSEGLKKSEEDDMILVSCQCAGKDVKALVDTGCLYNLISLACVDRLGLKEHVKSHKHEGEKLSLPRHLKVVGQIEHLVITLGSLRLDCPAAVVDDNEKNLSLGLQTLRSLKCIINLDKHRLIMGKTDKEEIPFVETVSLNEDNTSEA
UniProt Q8WTU0: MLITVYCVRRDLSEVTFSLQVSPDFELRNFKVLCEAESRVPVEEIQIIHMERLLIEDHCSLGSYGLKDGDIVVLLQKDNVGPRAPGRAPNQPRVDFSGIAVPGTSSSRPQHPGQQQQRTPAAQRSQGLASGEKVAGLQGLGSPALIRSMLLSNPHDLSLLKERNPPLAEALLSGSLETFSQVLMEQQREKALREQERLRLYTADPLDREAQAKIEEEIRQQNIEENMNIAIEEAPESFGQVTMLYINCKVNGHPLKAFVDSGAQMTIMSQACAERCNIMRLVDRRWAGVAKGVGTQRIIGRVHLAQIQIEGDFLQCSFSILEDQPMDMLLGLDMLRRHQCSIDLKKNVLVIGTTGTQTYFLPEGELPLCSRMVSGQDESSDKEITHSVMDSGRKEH

T1: RTF2 (replication termination factor 2, homologous to Schizosaccharomyces pombe Rtf2) (human (endogenous in KYSE30 and EC109)) (UniProt Q9BY42)
T1 sequence: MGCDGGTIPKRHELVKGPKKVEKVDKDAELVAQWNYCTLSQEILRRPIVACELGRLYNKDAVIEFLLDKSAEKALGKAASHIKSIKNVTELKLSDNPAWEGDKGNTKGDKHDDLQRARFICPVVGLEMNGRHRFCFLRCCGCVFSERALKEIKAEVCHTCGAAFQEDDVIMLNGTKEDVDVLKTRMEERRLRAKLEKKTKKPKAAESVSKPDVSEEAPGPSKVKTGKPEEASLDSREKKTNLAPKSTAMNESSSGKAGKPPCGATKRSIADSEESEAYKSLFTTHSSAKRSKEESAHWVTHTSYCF


Experiments:
[1] = molecular target: NRIP3 (nuclear receptor interacting protein 3), overexpressed in KYSE30 cells (UniProt Q9NQ35); experiment: co-IP; lysate of 30-NRIP3 cells (KYSE30 overexpressing NRIP3); Pierce Direct Magnetic IP/Co-IP kit, 500 µl lysate with 25 µl beads coupled with 5 µg NRIP3, DDI1 or RTF2 antibody, 4 °C overnight; western blot
[2] = molecular target: T1, RTF2 (replication termination factor 2, homologous to Schizosaccharomyces pombe Rtf2) (human (endogenous in KYSE30 and EC109)); experiment: co-IP; lysate of EC109 cells (endogenous proteins); Pierce Direct Magnetic IP/Co-IP kit, 500 µl lysate with 25 µl beads coupled with 5 µg NRIP3 or RTF2 antibody, 4 °C overnight; western blot
[3] = molecular target: DDI1 (DNA-damage inducible 1 homolog 1) (human (endogenous in KYSE30)) (UniProt Q8WTU0); experiment: co-IP; lysate of 30-NRIP3 cells (KYSE30 overexpressing NRIP3); Pierce Direct Magnetic IP/Co-IP kit, 500 µl lysate with 25 µl beads coupled with 5 µg NRIP3, DDI1 or RTF2 antibody, 4 °C overnight; western blot

Row | Molecule | binding [3] | also measured
1 | DDI1 (DNA-damage inducible 1 homolog 1) (from UniProt Q8WTU0 1-396) |  | binding [1]: binds
2 | NRIP3 (nuclear receptor interacting protein 3), endogenous in EC109 cells (from UniProt Q9NQ35 1-241) |  | binding [2]: binds
3 | NRIP3 (nuclear receptor interacting protein 3), overexpressed in KYSE30 cells (from UniProt Q9NQ35 1-241) | binds | 
4 | RTF2 (replication termination factor 2, homologous to Schizosaccharomyces pombe Rtf2) (protein, UniProt Q9BY42 1-306) MGCDGGTIPKRHELVKGPKKVEKVDKDAELVAQWNYCTLSQEILRRPIVACELGRLYNKDAVIEFLLDKSAEKALGKAASHIKSIKNVTELKLSDNPAWEGDKGNTKGDKHDDLQRARFICPVVGLEMNGRHRFCFLRCCGCVFSERALKEIKAEVCHTCGAAFQEDDVIMLNGTKEDVDVLKTRMEERRLRAKLEKKTKKPKAAESVSKPDVSEEAPGPSKVKTGKPEEASLDSREKKTNLAPKSTAMNESSSGKAGKPPCGATKRSIADSEESEAYKSLFTTHSSAKRSKEESAHWVTHTSYCF | binds | 
